The values that follow come from paper doi:10.1101/2024.10.19.619191.

By UniProt entry, the sequences of proteins in these tests, tags left out. Residues count along the entry.
UniProt P43220, residues 24-463: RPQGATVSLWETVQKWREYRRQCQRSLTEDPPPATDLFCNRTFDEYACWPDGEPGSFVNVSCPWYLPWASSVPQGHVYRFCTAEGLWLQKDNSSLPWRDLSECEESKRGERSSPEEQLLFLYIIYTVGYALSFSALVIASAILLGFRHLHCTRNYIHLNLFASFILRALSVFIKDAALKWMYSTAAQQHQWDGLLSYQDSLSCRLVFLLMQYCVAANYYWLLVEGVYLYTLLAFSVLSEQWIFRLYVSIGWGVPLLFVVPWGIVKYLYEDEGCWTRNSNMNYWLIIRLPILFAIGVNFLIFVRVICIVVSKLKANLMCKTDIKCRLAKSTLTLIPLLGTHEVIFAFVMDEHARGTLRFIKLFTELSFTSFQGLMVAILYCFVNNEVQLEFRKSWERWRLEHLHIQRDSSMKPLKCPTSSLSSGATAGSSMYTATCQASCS
UniProt P0C6C0: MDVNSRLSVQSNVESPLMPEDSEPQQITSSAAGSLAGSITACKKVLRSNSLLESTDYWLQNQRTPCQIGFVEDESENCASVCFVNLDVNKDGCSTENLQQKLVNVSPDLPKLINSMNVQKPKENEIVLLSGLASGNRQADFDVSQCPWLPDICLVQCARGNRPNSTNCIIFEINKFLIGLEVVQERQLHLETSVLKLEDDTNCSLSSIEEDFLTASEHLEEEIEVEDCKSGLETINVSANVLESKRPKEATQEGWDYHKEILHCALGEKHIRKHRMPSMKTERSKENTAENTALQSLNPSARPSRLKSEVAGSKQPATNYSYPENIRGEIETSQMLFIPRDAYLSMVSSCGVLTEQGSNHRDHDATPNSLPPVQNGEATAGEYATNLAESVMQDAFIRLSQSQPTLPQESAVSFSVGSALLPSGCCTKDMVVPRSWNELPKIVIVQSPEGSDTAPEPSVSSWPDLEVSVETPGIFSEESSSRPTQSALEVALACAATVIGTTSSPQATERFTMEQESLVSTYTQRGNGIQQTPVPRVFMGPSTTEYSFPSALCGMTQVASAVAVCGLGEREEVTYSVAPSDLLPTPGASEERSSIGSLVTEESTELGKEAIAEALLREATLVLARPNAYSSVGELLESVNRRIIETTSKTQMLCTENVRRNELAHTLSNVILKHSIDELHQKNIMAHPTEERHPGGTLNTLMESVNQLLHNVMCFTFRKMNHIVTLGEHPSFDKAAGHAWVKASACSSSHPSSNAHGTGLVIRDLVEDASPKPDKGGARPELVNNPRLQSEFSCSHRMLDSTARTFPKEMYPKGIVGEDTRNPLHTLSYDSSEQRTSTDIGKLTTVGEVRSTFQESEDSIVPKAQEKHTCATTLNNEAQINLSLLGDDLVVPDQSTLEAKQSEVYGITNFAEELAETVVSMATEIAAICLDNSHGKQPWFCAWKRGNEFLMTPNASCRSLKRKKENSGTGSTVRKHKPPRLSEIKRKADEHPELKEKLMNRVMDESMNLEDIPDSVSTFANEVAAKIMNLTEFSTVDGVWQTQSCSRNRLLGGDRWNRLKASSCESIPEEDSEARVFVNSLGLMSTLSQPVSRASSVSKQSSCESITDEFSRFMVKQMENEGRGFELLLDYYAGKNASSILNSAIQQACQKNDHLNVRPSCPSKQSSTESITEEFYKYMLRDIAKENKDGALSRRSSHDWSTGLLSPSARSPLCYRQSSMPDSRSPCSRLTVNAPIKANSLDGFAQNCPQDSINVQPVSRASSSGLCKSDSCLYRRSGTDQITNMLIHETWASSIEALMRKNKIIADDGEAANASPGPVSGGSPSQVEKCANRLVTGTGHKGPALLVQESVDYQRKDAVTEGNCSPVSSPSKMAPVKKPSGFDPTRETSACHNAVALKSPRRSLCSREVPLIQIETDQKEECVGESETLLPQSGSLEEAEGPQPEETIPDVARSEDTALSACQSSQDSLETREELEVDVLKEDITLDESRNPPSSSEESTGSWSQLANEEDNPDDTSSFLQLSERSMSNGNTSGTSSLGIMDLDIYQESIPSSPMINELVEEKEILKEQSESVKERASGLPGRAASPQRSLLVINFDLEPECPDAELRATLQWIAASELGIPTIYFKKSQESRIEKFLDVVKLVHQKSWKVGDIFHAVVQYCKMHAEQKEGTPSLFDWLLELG
UniProt Q9Z269: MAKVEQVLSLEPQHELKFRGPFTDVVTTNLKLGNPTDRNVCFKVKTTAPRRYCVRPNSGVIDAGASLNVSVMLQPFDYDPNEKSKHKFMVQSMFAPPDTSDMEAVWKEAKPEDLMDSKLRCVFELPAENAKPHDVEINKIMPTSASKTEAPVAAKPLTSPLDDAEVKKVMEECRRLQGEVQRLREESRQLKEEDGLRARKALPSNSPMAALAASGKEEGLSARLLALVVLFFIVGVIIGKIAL

The assay deals with SNAP/FLAG-hGlp1r^WT (human) (UniProt P43220). Description: affinity purification with mass spectrometry.

Results are given in words; binding and its absence hold for the method and conditions named. In cells and extracts the contact can be indirect. Here binding means that the protein was enriched with, or labelled near, the bait; the list need not be complete.

Consider “A-kinase anchoring protein (AKAP) SPHKAP (from UniProt P0C6C0 1-1683)”, for which the binding entry is recorded as “binds”.
Take “ER membrane contact site (MCS) tether VAP-B (from UniProt Q9Z269 1-243)”: the binding entry is given as “binds”.
